Test results taken from paper PMC13225845.
No constants are given. Whether binding was seen depends on the method and setting. In cells and extracts the contact can be indirect. These calls come from enrichment with a bait or labelling near it, and not all partners need be listed.

Protein sequences, listed by entry. Tags and fused reporters are not part of them.
UniProt Q09725: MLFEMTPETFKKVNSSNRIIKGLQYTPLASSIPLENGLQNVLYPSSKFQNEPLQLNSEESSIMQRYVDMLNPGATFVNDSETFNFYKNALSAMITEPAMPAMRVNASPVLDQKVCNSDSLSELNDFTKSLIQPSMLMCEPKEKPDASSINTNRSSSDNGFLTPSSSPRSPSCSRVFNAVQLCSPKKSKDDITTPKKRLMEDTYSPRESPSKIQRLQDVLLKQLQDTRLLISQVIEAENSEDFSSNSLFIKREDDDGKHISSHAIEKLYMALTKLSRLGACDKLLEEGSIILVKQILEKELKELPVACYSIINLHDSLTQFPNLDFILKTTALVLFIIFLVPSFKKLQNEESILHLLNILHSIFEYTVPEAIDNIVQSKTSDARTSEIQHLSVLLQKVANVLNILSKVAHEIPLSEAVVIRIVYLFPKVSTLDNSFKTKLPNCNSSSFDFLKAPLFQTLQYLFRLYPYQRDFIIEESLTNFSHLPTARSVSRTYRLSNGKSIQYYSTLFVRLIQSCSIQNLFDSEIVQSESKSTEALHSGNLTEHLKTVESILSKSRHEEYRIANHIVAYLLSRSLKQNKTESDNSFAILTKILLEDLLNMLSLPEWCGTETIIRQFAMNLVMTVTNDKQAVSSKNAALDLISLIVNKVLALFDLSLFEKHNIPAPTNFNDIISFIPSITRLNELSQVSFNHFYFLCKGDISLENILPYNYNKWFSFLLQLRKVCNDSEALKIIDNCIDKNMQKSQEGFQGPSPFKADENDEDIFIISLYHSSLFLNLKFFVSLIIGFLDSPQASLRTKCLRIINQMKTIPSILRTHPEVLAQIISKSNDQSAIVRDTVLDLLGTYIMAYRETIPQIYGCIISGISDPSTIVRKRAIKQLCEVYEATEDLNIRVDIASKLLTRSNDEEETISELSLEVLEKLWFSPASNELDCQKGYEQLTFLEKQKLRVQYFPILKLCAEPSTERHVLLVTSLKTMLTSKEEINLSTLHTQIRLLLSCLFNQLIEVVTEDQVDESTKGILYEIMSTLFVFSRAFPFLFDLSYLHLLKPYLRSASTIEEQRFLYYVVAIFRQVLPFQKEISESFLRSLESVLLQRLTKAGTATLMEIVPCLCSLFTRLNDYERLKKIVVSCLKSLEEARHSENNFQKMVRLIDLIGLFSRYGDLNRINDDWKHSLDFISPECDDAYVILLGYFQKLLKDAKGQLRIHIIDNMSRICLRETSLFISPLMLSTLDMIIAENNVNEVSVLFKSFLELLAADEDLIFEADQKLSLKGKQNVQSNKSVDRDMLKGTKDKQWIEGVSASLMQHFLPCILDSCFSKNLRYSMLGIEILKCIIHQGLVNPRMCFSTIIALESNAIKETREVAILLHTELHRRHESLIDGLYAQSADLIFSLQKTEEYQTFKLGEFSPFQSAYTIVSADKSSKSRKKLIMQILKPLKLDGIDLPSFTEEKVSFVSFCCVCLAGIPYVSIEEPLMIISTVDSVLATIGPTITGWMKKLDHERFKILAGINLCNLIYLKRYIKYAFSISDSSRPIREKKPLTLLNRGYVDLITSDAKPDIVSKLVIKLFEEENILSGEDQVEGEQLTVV
UniProt Q9Y7K2: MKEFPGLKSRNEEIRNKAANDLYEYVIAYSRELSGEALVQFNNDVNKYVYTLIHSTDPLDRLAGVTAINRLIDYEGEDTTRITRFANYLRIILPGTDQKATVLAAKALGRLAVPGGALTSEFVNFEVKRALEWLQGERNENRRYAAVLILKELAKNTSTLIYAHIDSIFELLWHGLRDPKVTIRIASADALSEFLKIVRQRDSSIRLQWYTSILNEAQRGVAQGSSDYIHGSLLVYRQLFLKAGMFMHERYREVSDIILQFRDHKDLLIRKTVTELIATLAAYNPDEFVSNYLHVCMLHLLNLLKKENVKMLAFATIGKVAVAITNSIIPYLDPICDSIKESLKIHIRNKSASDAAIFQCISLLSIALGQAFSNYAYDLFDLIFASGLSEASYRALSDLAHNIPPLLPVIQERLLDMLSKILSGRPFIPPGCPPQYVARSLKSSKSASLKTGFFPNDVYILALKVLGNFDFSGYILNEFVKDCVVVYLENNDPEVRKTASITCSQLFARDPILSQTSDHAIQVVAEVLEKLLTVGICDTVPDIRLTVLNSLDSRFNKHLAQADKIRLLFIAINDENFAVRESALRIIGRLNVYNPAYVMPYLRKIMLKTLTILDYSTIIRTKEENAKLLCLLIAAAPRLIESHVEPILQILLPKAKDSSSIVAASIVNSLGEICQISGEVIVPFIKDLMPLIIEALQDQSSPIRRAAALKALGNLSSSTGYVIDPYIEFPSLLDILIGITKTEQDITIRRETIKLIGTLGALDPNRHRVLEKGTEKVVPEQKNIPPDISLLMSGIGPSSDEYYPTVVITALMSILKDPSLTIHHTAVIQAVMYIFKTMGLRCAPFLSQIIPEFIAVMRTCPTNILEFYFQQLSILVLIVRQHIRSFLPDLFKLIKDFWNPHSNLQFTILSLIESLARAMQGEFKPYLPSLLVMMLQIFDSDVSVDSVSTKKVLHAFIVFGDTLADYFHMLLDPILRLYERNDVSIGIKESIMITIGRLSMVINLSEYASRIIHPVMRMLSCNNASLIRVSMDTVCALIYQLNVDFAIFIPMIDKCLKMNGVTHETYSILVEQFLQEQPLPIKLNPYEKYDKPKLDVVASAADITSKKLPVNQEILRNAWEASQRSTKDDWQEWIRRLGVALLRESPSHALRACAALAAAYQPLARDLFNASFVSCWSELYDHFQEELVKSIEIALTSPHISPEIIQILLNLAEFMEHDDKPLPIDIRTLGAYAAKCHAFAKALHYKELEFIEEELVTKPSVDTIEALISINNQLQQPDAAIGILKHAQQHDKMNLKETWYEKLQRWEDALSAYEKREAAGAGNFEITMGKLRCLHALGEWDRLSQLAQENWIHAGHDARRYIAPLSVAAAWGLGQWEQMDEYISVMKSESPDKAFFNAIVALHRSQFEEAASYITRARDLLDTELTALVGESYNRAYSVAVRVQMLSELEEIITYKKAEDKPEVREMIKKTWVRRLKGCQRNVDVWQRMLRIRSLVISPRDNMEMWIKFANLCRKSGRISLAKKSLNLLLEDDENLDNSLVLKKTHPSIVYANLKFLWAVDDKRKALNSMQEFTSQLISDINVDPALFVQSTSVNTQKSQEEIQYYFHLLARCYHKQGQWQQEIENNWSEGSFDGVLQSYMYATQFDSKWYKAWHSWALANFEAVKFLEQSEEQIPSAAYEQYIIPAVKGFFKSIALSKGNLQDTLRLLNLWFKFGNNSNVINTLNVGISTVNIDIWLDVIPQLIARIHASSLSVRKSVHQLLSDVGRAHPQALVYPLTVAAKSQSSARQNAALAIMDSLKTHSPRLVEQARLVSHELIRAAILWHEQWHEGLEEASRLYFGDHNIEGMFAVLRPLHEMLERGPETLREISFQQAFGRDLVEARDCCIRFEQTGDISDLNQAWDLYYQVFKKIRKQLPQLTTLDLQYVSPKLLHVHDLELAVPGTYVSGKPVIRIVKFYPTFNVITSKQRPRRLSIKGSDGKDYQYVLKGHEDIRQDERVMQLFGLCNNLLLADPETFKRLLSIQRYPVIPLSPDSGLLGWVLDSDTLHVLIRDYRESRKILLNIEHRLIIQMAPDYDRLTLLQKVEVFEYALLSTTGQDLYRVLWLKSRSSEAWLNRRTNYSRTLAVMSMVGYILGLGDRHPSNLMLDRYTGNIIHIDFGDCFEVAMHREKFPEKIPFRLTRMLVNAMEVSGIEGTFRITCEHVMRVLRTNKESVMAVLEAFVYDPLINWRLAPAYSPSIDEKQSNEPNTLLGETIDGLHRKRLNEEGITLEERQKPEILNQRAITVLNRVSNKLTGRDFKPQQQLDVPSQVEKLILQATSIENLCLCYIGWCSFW

How the values were obtained:
[1] = molecular target: Mis4-GFP (cohesin loader Mis4) (S. pombe) (UniProt Q09725); assay: affinity purification with mass spectrometry; Mis4-GFP or Rad21-PK affinity-purified from protein extracts of G1-arrested cells (cdc10-129 arrest), triplicate samples, label-free mass spectrometry; repeated in mip1-R401G and pef1Δ cells
[2] = molecular target: T1, Rad21-PK (cohesin kleisin subunit Rad21) (S. pombe) (UniProt P30776); assay: as above
T1 sequence: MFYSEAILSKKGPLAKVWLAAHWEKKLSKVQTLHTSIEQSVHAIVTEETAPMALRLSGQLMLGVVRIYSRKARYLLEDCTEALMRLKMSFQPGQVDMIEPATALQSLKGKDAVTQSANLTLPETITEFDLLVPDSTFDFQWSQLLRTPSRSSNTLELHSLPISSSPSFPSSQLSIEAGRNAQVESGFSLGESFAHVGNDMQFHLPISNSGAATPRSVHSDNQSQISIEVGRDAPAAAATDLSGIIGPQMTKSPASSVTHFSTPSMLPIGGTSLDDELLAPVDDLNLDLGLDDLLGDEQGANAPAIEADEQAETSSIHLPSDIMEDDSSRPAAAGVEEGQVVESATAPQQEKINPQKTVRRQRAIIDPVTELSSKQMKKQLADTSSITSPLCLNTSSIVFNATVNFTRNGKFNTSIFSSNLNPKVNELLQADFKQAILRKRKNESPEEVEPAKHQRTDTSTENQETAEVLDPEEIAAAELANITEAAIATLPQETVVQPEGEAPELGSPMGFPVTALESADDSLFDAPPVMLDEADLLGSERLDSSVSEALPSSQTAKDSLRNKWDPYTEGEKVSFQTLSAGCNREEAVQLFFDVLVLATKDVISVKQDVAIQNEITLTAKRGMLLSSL

Tor2, the kinase subunit of TORC1 (from UniProt Q9Y7K2 1-2337)
binding [1]: binds
binding [2]: binds
